# Earlier results, collected in US20110263454A1, “Methods of Identifying Functional Characteristics of Promoters, Transcription Modifying Proteins and Transcription Modulating Agents” (Salk Institute for Biological Studies, priority 2008, published 2011).
# For at least one compound, name, drawing or mass did not settle the structure.
# System: TRAP expression
# Details: human peripheral mononuclear cells; Reddy 1996; cited from earlier work
smiles,measurement,value
C=CC1=C(C)c2cc3[nH]c(cc4nc(cc5[nH]c(cc1n2)c(C)c5CCC(=O)O)C(CCC(=O)O)=C4C)c(C)c3C=C [protoporphyrin IX],TRAP expression at the transcriptional level,inhibited
